A short description of the experiment: qHTS Assay to Find Inhibitors of Chronic Active B-Cell Receptor Signaling. As to conditions: ABC-DLBCL IkBa-CBG/CBR reporter, luminescence ratio (green luciferase fused to IkBa over red control in TMD8 lymphoma cells), 4 h. Put shortly:
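TMD8 ABC-DLBCL cells carrying doxycycline-inducible green luciferase fused to IkappaBalpha plus unfused red luciferase were exposed to compounds (up to 46 uM) for 4 hrs at 37C. Activity came from the overlap-corrected green/red luminescence ratio.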

[1] abbreviates: measured here: CBR red luminescence, cell number.
Where [2] appears, read: measured here: IkBa-CBG green luminescence.

This is one part of the list. Shown are side measurements of this screen, not its main read-out; they come without a call. Compounds called inactive in the main read-out are mostly missing here. Potencies come from curve fits of mixed quality, noted in brackets.

For `CC(=O)Nc1ccc(NC(=O)c2cc(=O)c3cc(C)cc(C)c3o2)cc1`, under setting [1], the AC50 was 35.5 µM [falling, single point].
On to `COc1cc(CNCCN(C)C)c(Br)cc1OC1CCCC1`, for which the half-maximal activity concentration (AC50) under setting [1] is 6.31 µM [rising, full curve].
For the molecule `Cc1ccc(-n2ncc3c(N4CCCCC4)ncnc32)cc1Cl`, the AC50 under setting [1] was 3.55 µM [falling, partial curve, poor fit].
Consider `COc1ccc(F)cc1C(=O)C1CCCN(Cc2cccn2-c2ccccn2)C1` (stereo not drawn), for which, under setting [1], the concentration at half-maximal activity (AC50) was 31.6 µM [falling, single point].
On to `COc1ccc(Nc2nc(N)c(C(=O)c3ccc(OC)cc3)s2)cc1`, for which the AC50 under setting [1] was 3.98 µM [falling, partial curve, poor fit].
Turning to `CC1Cc2ccccc2N1C(=O)C1CCN(S(=O)(=O)Cc2ccccc2)CC1` (stereo not drawn), the AC50 under setting [1] was 12.6 µM [rising, partial curve, poor fit].
In the case of `Nn1cnc2cc3ccccc3cc2c1=O`, the AC50 under setting [1] is 4.47 µM [falling, partial curve].
`CCc1ccc(/C=C2/Sc3ccccc3N(CC(=O)NCCCOC)C2=O)cc1`: under setting [1], the AC50 was 2.82 µM [falling, full curve, poor fit].
The same measure, in the same setting: in the case of `CCOC(=O)C1C(=O)NCC2CCCC21` (stereo not drawn) it was 0.517 µM [falling, full curve, poor fit].
`C=CCSC1=N/C(=C/c2ccsc2)C(=O)N1c1ccccc1`: the AC50 under setting [1] is 0.731 µM [rising, partial curve, poor fit].
On to `Cc1onc(-c2ccccc2)c1C(=O)NC(=S)NNC(=O)c1ccc(O)cc1`, for which, under setting [1], the half-maximal activity concentration (AC50) is 7.31 µM [falling, partial curve].
Still for that read-out and setting: the result for `CCc1nnc(NC(=O)CSc2ccc(-c3nc4ccc(C)cc4[nH]3)cn2)s1` reads 1.3 µM [falling, full curve, poor fit]; that for `C=CCC[C@H](Cc1ccc(F)cc1)C(=O)OC[C@@H](Cc1c[nH]c2ccccc12)NC(=O)[C@@H](CC=C)CC(=O)NCCO`, 23.1 µM [falling, single point].
On to `COc1cc(C#Cc2c(-c3cncn3C)n(C)c3ccc(-c4cnc(OC)nc4)cc23)cc(OC)c1`, for which the half-maximal activity concentration (AC50) under setting [1] was 5.17 µM [falling, full curve] and the AC50 under setting [2] is 7.31 µM [rising, partial curve, poor fit].
For the molecule `COc1ccc(C2NC3=C(CCCC3)C(C#N)(C#N)C2(C#N)C#N)cc1` (stereo not drawn), the concentration at half-maximal activity (AC50) under setting [1] is 11.2 µM [falling, partial curve].
In the case of `CCCCNCc1cc2ccccc2o1`, under setting [1], the AC50 was 12.6 µM [rising, single point].
The same measure, in the same setting: in the case of `COc1cc2c(cc1OC)CN(C(=O)c1ccc(-c3ccccc3)cc1)CC2` it was 35.5 µM [falling, single point]; in that of `CCc1ccc(CNCc2cccnc2)cc1`, 29.1 µM [rising, single point].
As for `COC(=O)c1ccc(/C=N/Nc2nc(-c3ccccc3)cs2)cc1`, under setting [1], the AC50 is 14.6 µM [falling, single point].
Turning to `COc1ccc(NC(=S)Nc2cc(C(F)(F)F)ccc2F)cc1`, the AC50 under setting [1] is 35.5 µM [rising, partial curve, poor fit].
As for `O=C(COc1nsnc1N1CCOCC1)Nc1ccccc1Cl`, the AC50 under setting [1] was 11.2 µM [falling, partial curve].
In the case of `O=C(Nc1ccccc1OC(F)F)c1ccc(Br)o1`, the half-maximal activity concentration (AC50) under setting [1] is 11.6 µM [rising, partial curve, poor fit].
As to `COc1ccc2nc(NC(=O)C3CCCN(S(=O)(=O)c4cccs4)C3)sc2c1` (stereo not drawn), the AC50 under setting [1] is 18.4 µM [falling, single point].
Consider `CC1=CC(C)(C)N=C(Nc2nc(C)c3cc(C)cc(C)c3n2)N1`, for which the AC50 under setting [1] was 12.6 µM [falling, partial curve, poor fit].
`CCOC(=O)Cc1nc2ccccc2o1`: the concentration at half-maximal activity (AC50) under setting [1] is 14.1 µM [falling, single point].
For the molecule `O=C(Nc1ccccn1)c1ccc(Br)s1`, under setting [1], the AC50 is 11.2 µM [falling, single point].
Same read-out and setting: the result for `O=c1[nH]c(C2CCN(S(=O)(=O)c3ccc(S(=O)(=O)NC4CC4)cc3)CC2)nc2c1nnn2Cc1ccc(F)cc1` reads 35.5 µM [falling, single point].
In the case of `Nc1nc(-c2ccco2)nc(N2CCCCC2)n1`, the AC50 under setting [1] was 1.58 µM [falling, full curve].
Take `COc1ccc(/C=C/C(=O)N2CCN(c3ccccn3)CC2)c(OC)c1OC`: under setting [1], the AC50 is 11.2 µM [falling, single point].
Still for that read-out and setting: in the case of `CCOc1ccc(-c2cccc(NC(=O)COc3ccccc3)c2)nn1` it was 35.5 µM [falling, single point]; in that of `Cc1cccc(-n2ncc3c(N4CCOCC4)ncnc32)c1`, 23.1 µM [falling, partial curve]; in that of `CN(C)/C=C/C(=O)c1ccc(Oc2ncccn2)cc1`, 7.94 µM [rising, partial curve].
`COc1cccc(CN(Cc2cccnc2)S(=O)(=O)c2ccc(-n3cnnn3)c(C)c2)c1OC`: under setting [1], the AC50 was 17.8 µM [falling, partial curve, poor fit].
For the molecule `COCCn1c(SC(C(=O)Nc2cc(C)ccc2OC)c2ccccc2)nnc1-c1ccc(Cl)cc1` (stereo not drawn), under setting [1], the AC50 is 2.91 µM [rising, single point].
With `Cc1ccc(SCc2c(C#N)c3ccccc3n2C)cc1`, under setting [1], the AC50 is 23.1 µM [falling, partial curve, poor fit].
Regarding `O=C1[C@@H]2C(Cc3ccc(O)cc3)NC3(C(=O)Nc4ccc(F)cc43)[C@@H]2C(=O)N1c1ccccc1` (stereo partly drawn), under setting [1], the AC50 is 11.2 µM [falling, partial curve, poor fit].
Take `C=CCNCc1ccccc1[N+](=O)[O-]`: the half-maximal activity concentration (AC50) under setting [1] was 6.51 µM [rising, single point].
In the case of `CCCN(C(=O)Cc1csc(-c2ccccc2)n1)C1CCS(=O)(=O)C1` (stereo not drawn), under setting [1], the AC50 was 25.9 µM [rising, single point].
For `O=C(NNC(=O)c1cc(Br)ccc1O)c1csc(N2CCOCC2)n1`, the AC50 under setting [1] was 16.4 µM [falling, partial curve].
Regarding `Clc1cccc(-c2ccc(/C=N/n3cnnc3)o2)c1`, the concentration at half-maximal activity (AC50) under setting [1] is 23.1 µM [falling, single point].
As to `O=C1CC(SCc2nc3ccccc3[nH]2)C(=O)N1c1ccc(F)cc1` (stereo not drawn), the AC50 under setting [1] is 2.59 µM [falling, partial curve, poor fit].
With `COc1ccc(N2CCN(C(CNC(=O)c3cccs3)c3ccco3)CC2)cc1` (stereo not drawn), under setting [1], the AC50 is 2.59 µM [rising, full curve, poor fit].
For `C=CC[C@@H](CC(=O)N(CCO)Cc1ccccc1)C(=O)N[C@@H](COC(=O)[C@@H](CC=C)Cc1ccc(F)cc1)Cc1ccccc1`, the AC50 under setting [1] was 10.3 µM [falling, partial curve].
On to `CCOc1cc(Cn2c(-c3ccc(O)c(OCC)c3)nc3ccccc32)ccc1O`, for which the AC50 under setting [1] was 20 µM [falling, partial curve, poor fit].
Turning to `C=CS(=O)c1sc(Cl)c(N2CCOCC2)c1[N+](=O)[O-]` (stereo not drawn), the AC50 under setting [1] is 15.8 µM [falling, partial curve] and the AC50 under setting [2] was 31.6 µM [rising, single point].
On to `Cc1ccc(CCNC(=O)CN2C(=O)COc3ccc(S(=O)(=O)N4CCCC4)cc32)cc1`, for which, under setting [1], the AC50 was 22.4 µM [rising, single point].
Take `Cc1ccc2[nH]c3c(N4CCOCC4)ncnc3c2c1`: the AC50 under setting [1] was 14.6 µM [rising, partial curve].
Take `CCOc1ccc2ccccc2c1/C=N/n1cncn1`: the AC50 under setting [1] was 6.51 µM [rising, partial curve, poor fit].
`Cn1nc(OCCOc2ccccc2)ccc1=O`: the AC50 under setting [1] was 14.1 µM [rising, single point].
Consider `CCN(CC)S(=O)(=O)c1ccc2nc(NC(=O)c3cccs3)sc2c1`, for which the AC50 under setting [1] is 32.6 µM [falling, single point].
`COc1ccc(NC(=O)COc2ccc(S(=O)(=O)N3CCOCC3)cc2C)cc1OC`: the AC50 under setting [1] was 35.5 µM [rising, single point].
Turning to `Cc1ccc(CCNC(=O)C2CCC(=O)N2CCc2ccccc2)cc1` (stereo not drawn), the half-maximal activity concentration (AC50) under setting [1] is 11.2 µM [rising, partial curve, poor fit].
The same measure, in the same setting: the result for `CCc1cccc(NC(=O)CCCN2C(=O)C(c3ccccc3)Oc3cccnc32)c1` (stereo not drawn) reads 11.2 µM [falling, partial curve, poor fit]; that for `Cc1ccc(/C(=N\O)c2oc3c(C)c4oc(=O)cc(C)c4cc3c2C)cc1`, 18.4 µM [rising, single point].
As to `C=CCn1c(C)c(C(C)=O)c(N2CCOCC2)nc1=S`, the AC50 under setting [1] is 41.1 µM [falling, partial curve, poor fit] and the AC50 under setting [2] is 5.17 µM [rising, partial curve, poor fit].
On to `N#CC1=C(N)S[C@H](C(=O)C23CC4CC(CC(C4)C2)C3)[C@H]1c1ccncc1`, for which the AC50 under setting [1] is 29.1 µM [falling, single point].
Turning to `CCCC(=O)Nc1nc(-c2ccc(Cl)s2)cs1`, under setting [1], the AC50 was 14.1 µM [falling, single point].
Still for that read-out and setting: the result for `COc1cccc(CN(C)C(=O)CNC(=O)c2sc3ccccc3c2Cl)c1OC` reads 18.4 µM [falling, partial curve, poor fit].
In the case of `Fc1cccc(CN2CCN(Cc3nc(CCc4ccccc4)no3)CC2)c1`, the concentration at half-maximal activity (AC50) under setting [1] is 12.6 µM [rising, single point].
Take `NC(=O)c1ccsc1NC(=O)c1ccc([N+](=O)[O-])o1`: the AC50 under setting [1] is 14.6 µM [falling, partial curve].
Turning to `COc1ccc(Nc2nc(C(=O)N3CCc4cc(OC)c(OC)cc4C3)cs2)cc1`, the AC50 under setting [1] was 1.58 µM [rising, partial curve, poor fit].
Still for that read-out and setting: in the case of `O=C(O)CC1(CC(=O)Nc2ccc(Br)cc2)CCCCC1` it was 7.08 µM [falling, partial curve]; in that of `Cc1cc(C)nc(N2CCCC(C(=O)Nc3ccc4c(c3)OCCO4)C2)n1` (stereo not drawn), 5.62 µM [falling, single point].
For `O=C(Nc1cccc(F)c1)c1cc(S(=O)(=O)NCCC2=CCCCC2)ccc1F`, the AC50 runs as follows: under setting [1], 32.6 µM [falling, single point]; under setting [2], 23.1 µM [rising, single point].

The values are drawn from PubChem BioAssay AID493014 (National Center for Advancing Translational Sciences (NCATS), 2011).
